Substitutions are numbered along the chain they refer to. These are yes or no findings as the source states them, for the method shown. Some binding calls cover weakened binding; strength is not graded here.
T1: Soluble GPVI-Fc (human, UniProt Q9HCN6 21-269)
T1 construct: also called soluble human GPVI
T1 chain: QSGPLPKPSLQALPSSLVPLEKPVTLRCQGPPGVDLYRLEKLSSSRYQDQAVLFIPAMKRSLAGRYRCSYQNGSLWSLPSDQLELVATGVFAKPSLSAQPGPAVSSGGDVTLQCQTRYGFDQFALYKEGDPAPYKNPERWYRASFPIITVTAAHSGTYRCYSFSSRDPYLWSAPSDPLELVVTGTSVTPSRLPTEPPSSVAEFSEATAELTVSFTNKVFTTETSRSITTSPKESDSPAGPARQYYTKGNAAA

B1: ACT006 antibody (humanized Fab fragment) (Fab, V domains shown)
VH: QVQLVQSGAEVKKPGASVKVSCKASGYTFTSYNMHWVRQAPGQGLEWMGGIYPGNGDTSYNQKFQGRVTMTRDTSTSTVYMELSSLRSEDTAVYYCARGTVVGDWYFDVWGQGTLVTVSS
VL: DIQMTQSPSSLSASVGDRVTITCSASQSLENSNGNTYLNWYQQKPGKAPKLLIYRVSNRFSGVPSRFSGSGSGTDFTLTISSLQPEDFATYYCLQLTHVPWTFGQGTKVEIKR
B2: ACT017 antibody (humanized Fab fragment) (Fab, V domains shown)
VH: B1 VH
VL: B1 VL with S24R, A25S, L78F, F88I, K112T
notes: Coupled to Alexa488 for the flow cytometry assay; also called ACT17; humanized Fab ACT017

Assays:
[1] = target: T1, Soluble GPVI-Fc; experiment: ELISA on plate-coated GPVI-Fc, bound Fab detected, absorbance at 485 nm
[2] = target: T1, Soluble GPVI-Fc; experiment: SPR, BIAcore 2000

Row | Binder | binding [1] | binding [2]
1 | B1 | binds | binds
2 | B2 | binds | binds

From US20180236071A1 (ACTICOR BIOTECH, published 2018)
